Results taken from patent US20080171051A1, “Cancer Treatment” (priority 2003, published 2008).
These are yes or no findings as the source states them, for the method shown. In cells and extracts the contact can be indirect. Some binding calls cover weakened binding; strength is not graded here.

The chains behind the UniProt entries cited, without tags or fusion partners. Residues count along the entry.
UniProt P25445, residues 26-335: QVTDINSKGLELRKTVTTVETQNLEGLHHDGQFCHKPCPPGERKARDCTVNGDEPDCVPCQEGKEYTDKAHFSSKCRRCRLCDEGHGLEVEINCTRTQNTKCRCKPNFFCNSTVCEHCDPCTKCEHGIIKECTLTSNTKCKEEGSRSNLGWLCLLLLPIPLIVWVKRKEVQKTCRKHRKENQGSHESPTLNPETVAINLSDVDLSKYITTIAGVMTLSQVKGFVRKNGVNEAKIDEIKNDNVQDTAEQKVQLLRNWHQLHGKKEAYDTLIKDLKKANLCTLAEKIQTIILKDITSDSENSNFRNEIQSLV
UniProt P48023: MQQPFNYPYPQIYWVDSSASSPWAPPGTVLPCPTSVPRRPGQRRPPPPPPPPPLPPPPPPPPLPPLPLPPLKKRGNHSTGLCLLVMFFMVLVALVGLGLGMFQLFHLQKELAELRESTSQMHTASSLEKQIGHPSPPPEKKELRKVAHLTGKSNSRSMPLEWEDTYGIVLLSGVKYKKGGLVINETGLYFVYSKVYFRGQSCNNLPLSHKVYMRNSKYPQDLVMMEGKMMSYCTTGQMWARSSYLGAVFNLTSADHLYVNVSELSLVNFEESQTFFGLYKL

Biological target: Fas death receptor (UniProt P25445)
Experiment: co-immunoprecipitation from MCF-7 lysates (IP FasL polyclonal antibody, Western blot Fas monoclonal antibody) after 5-FU or TDX

## FasL (from UniProt P48023 1-281) (ligand)
  binding: binds
